Results reported in paper PMC10191332.
Results are given in words; binding and its absence hold for the method and conditions named. Binding seen in cells or lysates may run through a third protein.

Sequences of proteins named here, by UniProt entry; tags and fusion partners are left off. Residues count along the entry.
UniProt P06473, residues 32-906: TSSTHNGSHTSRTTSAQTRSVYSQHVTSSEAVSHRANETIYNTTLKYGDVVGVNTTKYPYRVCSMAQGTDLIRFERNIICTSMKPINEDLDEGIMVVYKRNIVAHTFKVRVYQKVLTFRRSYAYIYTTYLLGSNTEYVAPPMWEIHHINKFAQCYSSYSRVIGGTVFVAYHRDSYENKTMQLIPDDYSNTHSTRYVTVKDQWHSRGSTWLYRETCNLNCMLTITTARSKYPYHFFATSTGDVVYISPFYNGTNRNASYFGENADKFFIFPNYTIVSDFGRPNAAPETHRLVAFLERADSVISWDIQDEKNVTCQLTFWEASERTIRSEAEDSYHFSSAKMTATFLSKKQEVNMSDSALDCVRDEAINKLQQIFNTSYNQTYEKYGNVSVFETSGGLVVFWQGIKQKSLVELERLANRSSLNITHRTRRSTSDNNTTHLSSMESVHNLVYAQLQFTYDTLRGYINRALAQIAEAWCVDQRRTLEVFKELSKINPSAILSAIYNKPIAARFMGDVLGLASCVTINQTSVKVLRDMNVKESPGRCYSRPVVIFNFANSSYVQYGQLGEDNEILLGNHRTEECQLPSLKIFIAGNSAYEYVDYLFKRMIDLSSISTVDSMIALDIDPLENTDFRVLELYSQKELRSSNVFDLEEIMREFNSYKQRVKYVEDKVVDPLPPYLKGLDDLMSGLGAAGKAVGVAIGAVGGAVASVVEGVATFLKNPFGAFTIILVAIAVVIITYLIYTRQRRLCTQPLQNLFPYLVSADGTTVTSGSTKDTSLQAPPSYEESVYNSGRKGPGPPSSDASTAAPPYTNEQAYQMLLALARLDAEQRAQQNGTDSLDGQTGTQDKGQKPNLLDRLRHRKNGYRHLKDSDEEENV
UniProt P29317, residues 24-976: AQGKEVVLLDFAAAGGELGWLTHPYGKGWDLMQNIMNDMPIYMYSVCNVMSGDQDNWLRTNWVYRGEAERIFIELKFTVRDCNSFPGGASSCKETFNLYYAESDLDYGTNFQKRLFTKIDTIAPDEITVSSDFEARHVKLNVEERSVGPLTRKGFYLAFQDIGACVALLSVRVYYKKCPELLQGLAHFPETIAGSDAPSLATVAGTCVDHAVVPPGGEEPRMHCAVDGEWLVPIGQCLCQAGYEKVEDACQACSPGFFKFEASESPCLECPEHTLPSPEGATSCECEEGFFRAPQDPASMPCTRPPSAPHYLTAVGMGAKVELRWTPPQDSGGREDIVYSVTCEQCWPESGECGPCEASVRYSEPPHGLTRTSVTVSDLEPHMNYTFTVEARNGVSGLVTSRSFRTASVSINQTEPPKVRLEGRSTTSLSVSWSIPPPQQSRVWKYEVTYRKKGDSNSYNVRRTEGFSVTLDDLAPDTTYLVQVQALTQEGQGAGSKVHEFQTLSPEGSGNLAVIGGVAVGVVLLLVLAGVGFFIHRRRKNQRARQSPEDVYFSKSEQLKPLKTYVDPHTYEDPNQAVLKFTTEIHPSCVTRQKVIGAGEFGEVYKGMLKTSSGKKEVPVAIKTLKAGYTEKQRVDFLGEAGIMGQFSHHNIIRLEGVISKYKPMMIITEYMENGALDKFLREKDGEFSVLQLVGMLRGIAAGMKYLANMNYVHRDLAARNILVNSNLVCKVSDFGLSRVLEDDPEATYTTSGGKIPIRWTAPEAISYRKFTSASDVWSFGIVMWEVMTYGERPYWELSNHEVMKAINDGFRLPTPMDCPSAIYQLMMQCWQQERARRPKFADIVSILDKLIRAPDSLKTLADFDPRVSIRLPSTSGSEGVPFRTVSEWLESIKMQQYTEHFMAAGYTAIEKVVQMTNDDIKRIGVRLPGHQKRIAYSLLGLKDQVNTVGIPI

Biological target: Flag-tagged HCMV gB (HCMV) (UniProt P06473)
Experiment: co-IP

Myc-tagged EphA2 (from UniProt P29317 24-976) (receptor)
binding: no binding
